From paper PMC5732788
No constants are given. Whether binding was seen depends on the method and setting. Binding seen in cells or lysates may run through a third protein. A yes stands for co-enrichment or nearness to the bait. Other partners may have been found.

Amino acid sequences for entries named in this document (tags omitted).
UniProt P67809: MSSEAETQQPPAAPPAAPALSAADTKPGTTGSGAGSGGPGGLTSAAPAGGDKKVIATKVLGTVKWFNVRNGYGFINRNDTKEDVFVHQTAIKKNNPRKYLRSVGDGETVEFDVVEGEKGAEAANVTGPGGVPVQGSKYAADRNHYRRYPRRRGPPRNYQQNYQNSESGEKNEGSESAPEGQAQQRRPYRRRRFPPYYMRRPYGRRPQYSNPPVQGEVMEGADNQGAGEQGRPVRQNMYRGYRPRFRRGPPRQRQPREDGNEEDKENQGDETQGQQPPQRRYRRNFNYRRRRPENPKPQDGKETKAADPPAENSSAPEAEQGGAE

Target: T1, WAVE3 (human (endogenous in MDA-MB-231)) (UniProt Q9UPY6)
T1 sequence: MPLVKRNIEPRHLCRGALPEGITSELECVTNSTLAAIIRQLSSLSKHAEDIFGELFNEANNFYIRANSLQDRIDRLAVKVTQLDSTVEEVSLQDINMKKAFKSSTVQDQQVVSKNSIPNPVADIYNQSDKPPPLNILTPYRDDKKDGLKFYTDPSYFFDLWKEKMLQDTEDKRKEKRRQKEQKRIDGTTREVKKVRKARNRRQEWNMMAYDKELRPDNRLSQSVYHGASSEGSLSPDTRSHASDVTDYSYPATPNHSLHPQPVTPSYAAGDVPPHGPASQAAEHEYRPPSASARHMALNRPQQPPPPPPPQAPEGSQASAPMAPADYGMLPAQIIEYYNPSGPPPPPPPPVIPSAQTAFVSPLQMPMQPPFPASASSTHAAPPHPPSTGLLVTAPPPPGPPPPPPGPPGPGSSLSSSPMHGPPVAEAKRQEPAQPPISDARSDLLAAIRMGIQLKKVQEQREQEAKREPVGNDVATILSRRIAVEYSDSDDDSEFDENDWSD
Test: affinity purification with mass spectrometry; WAVE3 immunocomplexes isolated from MDA-MB-231 lysates; gel bands digested with trypsin, LC-MS/MS, Mascot search

binding: binds
Substance: Y-box binding protein-1 (from UniProt P67809 1-324)
